Data published in PMC8971431.
These are yes or no findings as the source states them, for the method shown. Binding seen in cells or lysates may run through a third protein. Binding can be weak; no strength is given. For part of these data: Tags and fused reporters may be left off the sequences shown. Blank lines part the entries; values can stand above or below the molecule they belong to.

Legend:
[1] = target: T1, Myc-tagged Tak1 (transforming growth factor-β-associated kinase 1, Drosophila) (Drosophila) (UniProt Q9V3Q6); assay: co-IP; 293 T cells transfected with tagged constructs (Lipofectamine 2000), collected 48 h after transfection; IP with anti-Fg or anti-Myc, immunoblot
T1 sequence: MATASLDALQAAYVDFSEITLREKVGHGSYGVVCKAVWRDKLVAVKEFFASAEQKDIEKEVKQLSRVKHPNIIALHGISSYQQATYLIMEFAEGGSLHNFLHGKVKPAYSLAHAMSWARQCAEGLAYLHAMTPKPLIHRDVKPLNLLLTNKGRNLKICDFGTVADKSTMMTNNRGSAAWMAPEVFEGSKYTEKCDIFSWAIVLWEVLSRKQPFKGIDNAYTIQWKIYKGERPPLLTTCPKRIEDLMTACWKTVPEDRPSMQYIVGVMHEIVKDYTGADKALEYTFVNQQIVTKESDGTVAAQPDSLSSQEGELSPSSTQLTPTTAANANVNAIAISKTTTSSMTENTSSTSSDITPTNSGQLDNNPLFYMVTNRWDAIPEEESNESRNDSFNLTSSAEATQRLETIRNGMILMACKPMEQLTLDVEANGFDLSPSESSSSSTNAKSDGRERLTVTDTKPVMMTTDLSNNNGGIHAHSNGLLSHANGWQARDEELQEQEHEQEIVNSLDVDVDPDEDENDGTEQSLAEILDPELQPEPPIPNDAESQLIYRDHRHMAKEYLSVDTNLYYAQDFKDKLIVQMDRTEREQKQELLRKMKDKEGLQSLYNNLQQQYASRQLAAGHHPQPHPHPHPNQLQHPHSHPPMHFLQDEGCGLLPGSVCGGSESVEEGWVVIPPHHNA

[2] = target: T2, endogenous Tak1 (Drosophila) (Drosophila (endogenous in third instar larvae)) (UniProt Q9V3Q6); assay: co-IP; endogenous proteins, third instar larval protein samples; home-made mouse anti-Tak1 and anti-Usp8 antibodies
T2 sequence: T1 sequence

[3] = target: Fg-tagged Usp8 (ubiquitin-specific protease 8, Drosophila) (Drosophila); assay: co-IP; 293 T cells transfected with tagged constructs (Lipofectamine 2000), collected 48 h after transfection; IP with anti-Fg or anti-Myc, immunoblot

binding [1]: binds
Molecule: Fg-tagged Usp8 (ubiquitin-specific protease 8, Drosophila) (enzyme)

binding [2]: binds
Molecule: endogenous Usp8 (Drosophila) (enzyme)

binding [3]: binds
B1: Myc-tagged Tak1 (transforming growth factor-β-associated kinase 1, Drosophila) (enzyme, UniProt Q9V3Q6 1-678)
chain: T1 sequence
